The nature of this assay: qHTS Assay to Find Inhibitors of Chronic Active B-Cell Receptor Signaling. As to conditions: ABC-DLBCL IkBa-CBG/CBR reporter, luminescence ratio (green luciferase fused to IkBa over red control in TMD8 lymphoma cells), 4 h. In outline:
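TMD8 ABC-DLBCL cells carrying doxycycline-inducible green luciferase fused to IkappaBalpha plus unfused red luciferase were exposed to compounds (up to 46 uM) for 4 hrs at 37C. Activity came from the overlap-corrected green/red luminescence ratio.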
On the technique in general: Quantitative high-throughput screening tests each substance at several concentrations.

Where [1] appears, read: measured here: CBR red luminescence, cell number.
Where [2] appears, read: measured here: IkBa-CBG green luminescence.

Some of the results follow. Shown are side measurements of this screen, not its main read-out; they come without a call. Compounds called inactive in the main read-out are mostly missing here. The note in brackets gives the kind of curve behind each potency; many fits are weak.

A word on the AC50: it is the concentration giving half of the maximal activity seen. With `CCOC(=O)CSc1nnc(-c2ccccc2)c(=O)[nH]1`, the AC50 under setting [1] is 32.6 µM [falling, partial curve, poor fit].

As for `CC(Oc1ccc(F)cc1)C(=O)Nc1cc(C(F)(F)F)ccc1-n1cncn1` (configuration not stated), the half-maximal activity concentration (AC50) under setting [1] is 7.31 µM [rising, partial curve].

Consider `CCOC(=O)CSc1nc(C)cc(C)c1C#N`, for which the half-maximal activity concentration (AC50) under setting [1] is 4.11 µM [rising, full curve].

Turning to `CN(c1ccccc1)S(=O)(=O)c1ccc(C(=O)OCC(=O)N2CCOCC2)cc1`, the AC50 under setting [1] is 0.092 µM [falling, full curve, poor fit].

Regarding `COc1ccc(C(=S)Nc2ccc(N(C)C)cc2)cc1`, under setting [1], the AC50 is 29.1 µM [rising, single point].

`CC1CCCCC1n1c(=S)[nH]c2ccccc2c1=O` (configuration not stated): the AC50 is 1.58 µM [rising, full curve] under setting [1] and 10 µM [falling, partial curve, poor fit] under setting [2].

`COc1ccc(C(=O)C2CCCN(C3Cc4ccccc4C3)C2)c(OC)c1` (configuration not stated): the AC50 under setting [1] was 0.562 µM [rising, full curve, poor fit].

With `Cn1c(C=O)c(-c2ccc3c(c2)OCCO3)c2ccccc21`, the half-maximal activity concentration (AC50) under setting [1] was 7.31 µM [rising, partial curve].

As to `Cn1c(Cn2c(=O)sc3ccccc32)nnc1SCc1ccccc1F`, under setting [1], the AC50 is 6.51 µM [falling, single point].

With `Nc1nc(Cl)nc2c1ncn2[C@H]1C[C@H](O)[C@@H](CO)O1`, the AC50 under setting [1] is 8.2 µM [rising, partial curve].

In the case of `Cc1cccc(NC(=O)Nc2ccc(Cl)cc2)n1`, the AC50 under setting [1] was 0.112 µM [rising, full curve].

Turning to `Cc1ccc(/C=C/S(=O)(=O)NCC(=O)OCC(=O)Nc2c(F)cccc2F)cc1`, the AC50 under setting [1] was 25.9 µM [falling, single point].

Regarding `S=C(Nc1ccccc1)Nc1cccc(Cl)c1Cl`, the AC50 under setting [1] is 35.5 µM [rising, single point].

Regarding `Cc1nc2ncccn2c1-c1csc(Nc2ccc(O)cc2)n1`, the AC50 under setting [1] is 1.78 µM [rising, partial curve].

For the molecule `CCNC(=O)c1ccccc1NC(=O)c1cccc(S(=O)(=O)N2CCC(C)CC2)c1`, the AC50 under setting [1] is 2.06 µM [rising, partial curve, poor fit].

Take `CC(C)C(NC(=O)c1ccc(C(C)(C)C)cc1)C(=O)OCC(=O)NC(=O)Cc1ccccc1` (configuration not stated): the AC50 under setting [1] was 29.1 µM [falling, single point].

Take `COc1ccc(C(=O)NN2C(=S)N(c3ccc(OC)cc3)C(=O)C2CC(N)=O)cc1` (configuration not stated): under setting [1], the AC50 was 35.5 µM [rising, single point].

For the molecule `COc1cc(NC(=O)CCc2ccccc2)c(C(=O)O)cc1OC`, the half-maximal activity concentration (AC50) under setting [1] was 17.8 µM [falling, single point].

In the case of `C=CCNC(=O)c1onc(CSc2cccc(OCC)c2)c1C(=O)O`, the AC50 under setting [1] was 22.4 µM [falling, single point].

In the case of `C#CCNC(=O)C1=C[C@H](C2CCCCC2)C[C@H](OCCCCO)O1`, the AC50 under setting [1] was 3.55 µM [rising, full curve, poor fit].

For the molecule `O=C(NCc1ccco1)Nc1cccc([N+](=O)[O-])c1`, the AC50 under setting [1] is 5.62 µM [rising, full curve, poor fit].

Turning to `Cc1ccc(NC(=O)C2=CCN(S(=O)(=O)c3ccc(F)cc3)CC2)cc1`, under setting [1], the half-maximal activity concentration (AC50) is 16.4 µM [rising, partial curve, poor fit].

Regarding `Cc1ccc(-c2cc(C(=O)OCC(=O)N(C)C3CCS(=O)(=O)C3)c3ccccc3n2)c(C)c1` (configuration not stated), the AC50 under setting [1] was 35.5 µM [falling, single point].

Regarding `CCCc1cc(-c2nc(-c3ccc(C)cc3)cs2)ccn1`, under setting [1], the concentration at half-maximal activity (AC50) is 11.6 µM [rising, partial curve].

For `CC(C)C(=O)Nc1ccc(-c2csc(-c3ccccc3)n2)cc1`, the concentration at half-maximal activity (AC50) under setting [1] is 2.51 µM [rising, full curve, poor fit].

`N/C(=N\OC(=O)COc1ccc(Cl)cc1Cl)c1ccncc1`: the AC50 under setting [1] was 2.51 µM [rising, full curve].

Take `Cc1ccc(C(=O)N2CCN(c3ccc([N+](=O)[O-])c(NCc4cccnc4)c3)CC2)cc1`: under setting [1], the AC50 was 4.11 µM [rising, partial curve, poor fit].

As for `Cc1ccc(N2CC(C(=O)Nc3nccs3)CC2=O)cc1Cl` (configuration not stated), the AC50 reads like this: under setting [1], 13 µM [falling, partial curve, poor fit]; under setting [2], 25.9 µM [rising, partial curve, poor fit].

For `Cc1oc(=O)c(NC(=O)c2ccccc2)cc1C(=O)c1ccccc1`, under setting [1], the concentration at half-maximal activity (AC50) is 3.55 µM [falling, full curve].

As to `CCn1c2ccccc2c2nnc(NN)nc21`, the half-maximal activity concentration (AC50) under setting [1] is 25.9 µM [falling, single point].

As for `CSc1nc(NCC(C)O)c2c3c(sc2n1)CN(C)CC3` (configuration not stated), the AC50 under setting [1] is 17.8 µM [falling, partial curve, poor fit].

As to `COc1cccc(/C=N/c2oc(-c3ccccc3)cc2C#N)c1O`, the half-maximal activity concentration (AC50) under setting [1] was 8.2 µM [falling, partial curve, poor fit].

In the case of `O=C(N/N=C/c1ccc2c(c1)OCO2)c1cccs1`, under setting [1], the concentration at half-maximal activity (AC50) was 5.8 µM [falling, partial curve].

`Cc1[nH]c2ccccc2c1C(O)CN1CCN(c2cccc(C(F)(F)F)c2)CC1` (configuration not stated): the concentration at half-maximal activity (AC50) under setting [1] was 3.55 µM [falling, full curve, poor fit].

Turning to `C/C(CCc1oc2ccc(Cl)cc2c1-c1ccc(C)o1)=N\O`, under setting [1], the half-maximal activity concentration (AC50) was 25.9 µM [falling, single point].

As to `O=C(O)C1C2C=CC(C2)C1C(=O)N1CCc2ccccc21` (configuration not stated), the concentration at half-maximal activity (AC50) under setting [1] is 29.1 µM [falling, partial curve, poor fit].

For the molecule `O=C(CSc1nc2ccccc2n1S(=O)(=O)c1cccc([N+](=O)[O-])c1)NCCc1ccccc1`, the half-maximal activity concentration (AC50) under setting [1] is 9.2 µM [rising, partial curve, poor fit].

Turning to `CCOC(=O)c1nc(Nc2ccc(C)cc2)c2ccccc2n1`, under setting [1], the AC50 is 32.6 µM [falling, single point].

As to `COc1ccc(NC(=O)CC2CC3CCC2C3)cn1` (configuration not stated), the AC50 under setting [1] was 7.94 µM [rising, partial curve, poor fit].

For `Cc1ccccc1C(=O)NC1CC2CCC(C1)N2Cc1ccccc1` (configuration not stated), the half-maximal activity concentration (AC50) under setting [1] is 35.5 µM [falling, single point].

Take `Cc1ccc(S(=O)(=O)c2nc(NCCN(C)C)sc2Cl)cc1`: under setting [1], the half-maximal activity concentration (AC50) was 0.82 µM [rising, full curve, poor fit].

For `O=C(N/N=C/c1ccc(Cl)cc1)c1ccc2c(c1)OCO2`, the AC50 under setting [1] is 7.94 µM [falling, partial curve].

Regarding `COc1ccc(C(=O)Nc2nc3ccccc3[nH]2)cc1S(=O)(=O)N1CCCC1`, the half-maximal activity concentration (AC50) under setting [1] was 2.91 µM [falling, partial curve, poor fit].

As for `O=C(Nc1nnc(-c2ccc3c(c2)CCCC3)o1)c1ccc(Cl)cc1Cl`, the AC50 under setting [1] was 29.1 µM [falling, single point].

For `COc1cccc2c1[C@@H]1CN(CCCCn3c(=O)[nH]c4c(sc5ncc(-c6ccccc6)nc54)c3=O)C[C@@H]1CO2`, the half-maximal activity concentration (AC50) reads like this: under setting [1], 20.6 µM [falling, single point]; under setting [2], 32.6 µM [rising, partial curve, poor fit].

For the molecule `COC(=O)c1ccc(NC(=O)Nc2ccc([N+](=O)[O-])cc2)cc1`, the AC50 under setting [1] is 3.16 µM [falling, partial curve, poor fit].

Turning to `CCOc1ccc(S(=O)(=O)N2CCC(C(=O)Nc3cccc(NC(C)=O)c3)CC2)cc1`, the AC50 under setting [1] was 2 µM [falling, partial curve].

`CC(=O)Nc1ccc2c(c1)ncn2-c1ccccc1`: under setting [1], the half-maximal activity concentration (AC50) was 11.2 µM [falling, partial curve].

For `CCOC(=O)/C(=N/Nc1ccc(OC)cc1)N1CCCc2ccccc21`, the AC50 under setting [1] was 3.16 µM [rising, partial curve, poor fit].

As to `COc1ccc(C(=O)OCC(=O)c2ccc(Cl)s2)c(OC)c1OC`, under setting [1], the half-maximal activity concentration (AC50) was 7.31 µM [rising, partial curve, poor fit].

`COc1ccc(OCc2n[nH]c(=S)o2)cc1`: the AC50 under setting [1] is 29.1 µM [falling, single point].

Consider `CC(=O)c1c(Nc2cccc(F)c2)oc(C)cc1=O`, for which the half-maximal activity concentration (AC50) under setting [1] was 35.5 µM [rising, partial curve, poor fit].

`Cc1cc(C(=O)N/N=C/c2ccc3c(c2)OCO3)c2ccccc2n1`: the half-maximal activity concentration (AC50) under setting [2] was 15.8 µM [falling, partial curve, poor fit].

As for `Cc1ccc(OCc2cc(C(=O)NC(C)Cc3cnccn3)no2)cc1C` (configuration not stated), under setting [1], the concentration at half-maximal activity (AC50) was 17.8 µM [falling, single point].

In the case of `CCOc1ccc(C2C(C#N)=C(N)Oc3cc(C)n(Cc4ccco4)c(=O)c32)cc1OC` (configuration not stated), the AC50 under setting [1] is 1.3 µM [rising, full curve].

On to `O=c1c2ccccc2nc(/C=C/c2ccc(O)cc2)n1CCc1ccccc1`, for which the concentration at half-maximal activity (AC50) under setting [1] is 1.3 µM [falling, full curve].

As to `Clc1ccc(CON/C=N/c2ncnc3sccc23)cc1`, the concentration at half-maximal activity (AC50) under setting [1] is 2.51 µM [falling, full curve].

Regarding `CC1(CCc2ccccc2)NC(=S)N(c2ccc(Cl)cc2)N1` (configuration not stated), the AC50 under setting [1] is 2.91 µM [rising, partial curve, poor fit].

In the case of `COc1ccc(-c2cn3nc(SCC(=O)NCC4CCCO4)ccc3n2)cc1` (configuration not stated), the half-maximal activity concentration (AC50) under setting [1] is 0.447 µM [falling, full curve, poor fit].

As to `Cc1ccc(-c2csc(NC(=O)/C=C/c3ccco3)c2C(=O)O)cc1`, the AC50 under setting [1] was 20 µM [falling, single point].

As to `Cc1ccc(C)c(N2CCN(CCCNC(=O)CCC(=O)N3CCOc4ccc(Cl)cc43)CC2)c1`, the AC50 under setting [1] was 11.2 µM [falling, partial curve, poor fit].

As to `CCC(CC)C(=O)Nc1ccc(C(=O)Nc2cc(C)on2)cc1`, the AC50 under setting [1] was 0.891 µM [falling, partial curve].

For `O/N=C/c1ccc(OCc2ccccc2)c(Br)c1`, under setting [1], the half-maximal activity concentration (AC50) is 1.03 µM [rising, full curve].

Turning to `O=C(COC(=O)CC(c1ccccc1)c1ccccc1)NCc1ccc(Cl)cc1`, the AC50 under setting [1] was 29.1 µM [falling, single point].

The values are drawn from PubChem BioAssay AID493014 (National Center for Advancing Translational Sciences (NCATS), 2011).
